The series in a line: Fmoc solid-phase peptide synthesis; Fmoc-X-Wang resin. To be noted: whole synthesis, scale of the general procedure 0.08 mmol.

Consider “N-acetyl-Cys-Lys-Met-Cys-NH2 (CKMC; N-acetyl, C-terminal amide)”, for which the “final purity (method not given)” value is given as above 98% pure.

Values taken from patent US9499582B2 (Oneday—Biotech And Pharma Ltd., priority 2012, dated 2016).
